# Measured values from the supplement of paper PMC12823440, “Inhibitors supercharge kinase turnover through native proteolytic circuits” (Nature, 2025).
# Chains of the proteins cited; added tags and fusions are not shown. Lines headed by an entry give the natural chain unless they say otherwise; changes in a name come on top.
# UniProt P51451: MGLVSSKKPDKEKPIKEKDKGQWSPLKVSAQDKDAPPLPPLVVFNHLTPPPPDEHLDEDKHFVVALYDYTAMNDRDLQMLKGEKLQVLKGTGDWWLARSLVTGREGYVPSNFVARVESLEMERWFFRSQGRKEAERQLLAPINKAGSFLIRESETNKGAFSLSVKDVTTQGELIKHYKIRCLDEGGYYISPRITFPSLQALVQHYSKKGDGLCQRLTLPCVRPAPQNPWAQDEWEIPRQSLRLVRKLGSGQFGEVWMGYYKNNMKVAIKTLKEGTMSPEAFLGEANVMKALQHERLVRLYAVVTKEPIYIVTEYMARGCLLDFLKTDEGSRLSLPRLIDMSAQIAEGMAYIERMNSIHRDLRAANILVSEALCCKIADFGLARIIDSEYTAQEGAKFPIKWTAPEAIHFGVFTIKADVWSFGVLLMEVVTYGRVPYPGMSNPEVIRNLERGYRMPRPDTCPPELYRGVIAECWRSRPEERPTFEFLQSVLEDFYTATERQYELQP
# UniProt P51813: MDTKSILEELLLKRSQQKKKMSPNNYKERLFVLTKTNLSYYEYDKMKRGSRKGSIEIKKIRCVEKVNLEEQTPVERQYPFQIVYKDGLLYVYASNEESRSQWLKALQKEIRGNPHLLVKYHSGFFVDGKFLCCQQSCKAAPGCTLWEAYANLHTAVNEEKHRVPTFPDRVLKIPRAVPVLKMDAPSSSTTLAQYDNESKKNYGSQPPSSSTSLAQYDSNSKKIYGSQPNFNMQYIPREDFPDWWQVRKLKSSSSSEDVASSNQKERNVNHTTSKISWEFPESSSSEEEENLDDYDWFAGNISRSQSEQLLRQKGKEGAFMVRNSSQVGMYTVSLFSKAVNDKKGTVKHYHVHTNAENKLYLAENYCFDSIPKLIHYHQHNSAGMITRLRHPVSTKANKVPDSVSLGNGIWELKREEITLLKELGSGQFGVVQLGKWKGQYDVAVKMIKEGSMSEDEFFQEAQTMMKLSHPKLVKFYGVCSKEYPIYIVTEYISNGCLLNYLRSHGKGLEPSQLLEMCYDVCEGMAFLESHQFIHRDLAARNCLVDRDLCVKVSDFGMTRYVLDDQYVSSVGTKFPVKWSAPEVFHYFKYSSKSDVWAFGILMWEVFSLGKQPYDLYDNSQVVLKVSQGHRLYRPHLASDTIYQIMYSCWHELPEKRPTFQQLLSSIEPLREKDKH
# Some of the results follow. Hit calls seldom repeat between salt and free forms of one compound.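 Kinases were expressed as nanoluciferase fusions in K562 cells and luminescence was read every 4 h between 2 and 18 h as percent of control, DMSO set to 100% and a positive control to 0%. A time point counts as decreased when the signal drops significantly (2 sigma). The hit call is the authors' own, does not follow from the count of time points alone, and its rule is not shown.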
# Molecular target: BLK (UniProt P51451)
# Experiment: number of time points (of 5) at which kinase-Nluc abundance scored as decreased, DMSO-normalised (count); higher = more persistent destabilization
# Conditions: K562; 2-18 h
row,SMILES,number of time points
1,C=C(CCC=C(C)C)[C@H]1CC[C@]2(C)[C@@H]1[C@H](O)C[C@@H]1[C@@]3(C)CC[C@H](O[C@@H]4O[C@H](CO)[C@@H](O)[C@H](O)[C@H]4O[C@@H]4O[C@H](CO)[C@@H](O)[C@H](O)[C@H]4O)C(C)(C)[C@@H]3CC[C@]12C [Ginsenoside Rk1] (10 µM),0
2,CC(C)=CC[C@H](O)C1=CC(=O)c2c(O)ccc(O)c2C1=O [(-)-Alkannin] (2.5 µM),0
3,N#Cc1c(-c2ccccc2)cc(-c2cc(Br)ccc2O)[nH]c1=O (10 µM),0
4,CCn1c(-c2nonc2N)nc2cnc(Oc3cccc(NC(=O)c4ccc(OCCN5CCOCC5)cc4)c3)cc21 (10 µM),0
5,CO[C@H]1C[C@@H]2CC[C@@H](C)[C@@](O)(O2)C(=O)C(=O)N2CCCC[C@H]2C(=O)O[C@H]([C@H](C)C[C@@H]2CC[C@@H](O)[C@H](OC)C2)CC(=O)[C@H](C)/C=C(\C)[C@@H](O)[C@@H](OC)C(=O)[C@H](C)C[C@H](C)/C=C/C=C/C=C/1C [Rapamycin] (10 µM),0
6,CC(C)=CCC[C@](C)(O[C@@H]1O[C@H](CO)[C@@H](O)[C@H](O)[C@H]1O)[C@H]1CC[C@]2(C)[C@@H]1[C@H](O)C[C@@H]1[C@@]3(C)CC[C@H](O)C(C)(C)[C@@H]3[C@@H](O[C@@H]3O[C@H](CO)[C@@H](O)[C@H](O)[C@H]3O[C@@H]3O[C@@H](C)[C@H](O)[C@@H](O)[C@H]3O)C[C@]12C [Ginsenoside Re] (10 µM),0
7,Cn1c(=O)c(F)c(Nc2ccc(I)cc2F)c2c(=O)n(C[C@@H](O)CO)cnc21 (10 µM),0

# Molecular target: BMX (UniProt P51813)
# Experiment: as above
# Conditions: K562; 2-18 h
row,SMILES,number of time points
1,NCc1ccc(Nc2ncc(F)c(Nc3ccccc3)n2)cc1 (10 µM),0
2,C=C(C)C(=O)Nc1cccc(-c2ncnc3[nH]cc(C(=O)OCC)c23)c1 (10 µM),0
3,CCOc1cc(C(=O)N2CCC(N3CCN(C)CC3)CC2)ccc1Nc1ncc2c(n1)N(C1CCCC1)c1ccccc1C(=O)N2C (10 µM),0
4,CCOc1ccc(C(=O)Nc2ncc([N+](=O)[O-])s2)cc1 (10 µM),3
5,CNC(=O)Nc1ccc(-c2cc(-c3ccnc(Nc4ccc(C)c(S(=O)(=O)N(C)C)c4)n3)ccn2)cc1 [hSMG-1 inhibitor 11e] (2.5 µM),0
6,CNC(=O)c1ccc(-c2cnc3cnc(C(=O)N(C)c4ccc(Cl)cc4)cn23)cc1 (2.5 µM),0
7,COc1cccc(-n2c(=O)[nH]c3cc(Cl)n(-c4ccc(-c5cccc(OC)c5O)cc4)c3c2=O)c1 (2.5 µM),0
8,O=C(Nc1cccnc1)c1cc(C(=O)c2c(F)cccc2Br)c[nH]1 (10 µM),0
9,CN(CC(=O)N(Cc1ccc(C2CCCCC2)cc1)c1ccc(C(=O)O)cc1)S(=O)(=O)c1c(F)c(F)c(F)c(F)c1F (2.5 µM),0
10,COc1c(NC(=O)C(=O)c2ccc(OCCN3CCOCC3)c3ccccc23)cc(C(C)(C)C)cc1NS(C)(=O)=O (2.5 µM),0
11,CC(C)CC1(O)CCN(C(=O)c2ccc(NS(=O)(=O)c3cccc4nccnc34)cc2)CC1 (10 µM),0
12,O=C(/C=C/c1ccc(O)c(O)c1)c1ccc(O[C@@H]2O[C@H](CO)[C@@H](O)[C@H](O)[C@H]2O)c(O)c1O [Marein] (10 µM),0
13,Cc1cc2cc(Nc3ccnc(Nc4ccc5[nH]c(C)cc5c4)n3)ccc2[nH]1 (2.5 µM),0
14,Cc1cc(Nc2cc(Cl)nc(Oc3ccc([N+](=O)[O-])cc3)n2)n[nH]1 [Autophinib] (2.5 µM),2
15,Fc1ccc(-c2nc(-c3ccccc3F)[nH]c2-c2ccncc2)cc1 (2.5 µM),0
16,OC(COc1ccc(C(F)(F)F)cc1)CN(Cc1ccccc1)Cc1ccccc1 (configuration not stated) (2.5 µM),0
17,COc1ccc2[nH]cc(/C=C3\C(=O)Nc4ccc(NC(=O)CCN5CCCCC5)cc43)c2c1 (2.5 µM),0
18,CS(=O)(=O)c1ccc(-c2noc(C(F)(F)F)c2-c2ccccc2)cc1 (10 µM),0
19,COCCO[C@@H]1[C@H](O)[C@@H](CO)O[C@H]1n1cnc2c(=O)[nH]c(N)nc21 [2′-O-(2-Methoxyethyl)guanosine] (10 µM),0
20,Cn1cnc(-c2cc3nccc(Oc4ccc(NC(=S)NC(=O)Cc5ccccc5)cc4F)c3s2)c1 [MGCD-265 analog] (10 µM),3
